Measured values as given in article PMC2672617, “Abl Kinase Inhibits the Engulfment of Apopotic Cells in Caenorhabditis elegans” (PLoS Biology, 2009).
Results are given in words; binding and its absence hold for the method and conditions named. In cells and extracts the contact can be indirect. Some entries that bind do so weakly or less than the wild type. Where a sequence is shown, tags or fusion partners need not be part of it.

The chains behind the UniProt entries cited, without tags or fusion partners.
UniProt P08659: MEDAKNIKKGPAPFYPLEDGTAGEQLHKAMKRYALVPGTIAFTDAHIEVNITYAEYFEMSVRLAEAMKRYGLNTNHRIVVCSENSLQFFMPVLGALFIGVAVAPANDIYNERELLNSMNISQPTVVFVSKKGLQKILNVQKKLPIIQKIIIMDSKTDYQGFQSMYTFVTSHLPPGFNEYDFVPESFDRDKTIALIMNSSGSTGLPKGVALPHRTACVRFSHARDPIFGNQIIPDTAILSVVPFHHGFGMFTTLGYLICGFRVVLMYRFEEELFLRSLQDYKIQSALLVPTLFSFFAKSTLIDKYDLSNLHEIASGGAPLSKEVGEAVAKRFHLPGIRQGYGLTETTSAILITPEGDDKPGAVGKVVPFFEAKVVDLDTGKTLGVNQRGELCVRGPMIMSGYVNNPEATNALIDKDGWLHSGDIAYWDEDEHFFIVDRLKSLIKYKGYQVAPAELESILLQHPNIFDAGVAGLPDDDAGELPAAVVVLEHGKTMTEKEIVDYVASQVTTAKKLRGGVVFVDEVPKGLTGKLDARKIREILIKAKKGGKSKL

T1: GST-ABI-1 (glutathione-S-transferase fused to the N terminus of full-length C. elegans ABI-1) (C. elegans) (UniProt Q10929)
T1 sequence: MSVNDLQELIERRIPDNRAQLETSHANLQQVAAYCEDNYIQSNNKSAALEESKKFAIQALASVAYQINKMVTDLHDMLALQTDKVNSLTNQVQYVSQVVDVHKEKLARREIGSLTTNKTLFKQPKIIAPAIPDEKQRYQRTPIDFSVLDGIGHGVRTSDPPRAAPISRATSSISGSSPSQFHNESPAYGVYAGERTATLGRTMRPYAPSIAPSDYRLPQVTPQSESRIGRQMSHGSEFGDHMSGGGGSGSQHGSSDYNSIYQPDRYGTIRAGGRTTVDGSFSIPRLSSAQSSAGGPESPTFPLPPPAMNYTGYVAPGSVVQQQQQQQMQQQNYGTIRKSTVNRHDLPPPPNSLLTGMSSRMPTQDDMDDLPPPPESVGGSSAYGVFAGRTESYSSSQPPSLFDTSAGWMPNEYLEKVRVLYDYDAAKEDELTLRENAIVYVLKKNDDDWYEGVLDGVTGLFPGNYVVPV


Target: T1, GST-ABI-1 (glutathione-S-transferase fused to the N terminus of full-length C. elegans ABI-1) (C. elegans)
Test: pull-down; GST, GST-ABI or GST-ABIΔ on glutathione beads incubated with 25 μl of a 100 μl 35S-labelled in vitro transcription/translation reaction; 2 h at 4 °C in PBB2 (25 mM HEPES pH 7.6, 150 mM NaCl, 5 mM MgCl2, 0.1 mM EDTA, 0.1% Tween-20, 0.25% BSA); washes with 300 and 250 mM NaCl; SDS-PAGE, autoradiography, phosphorimager quantitation; only the target purified

Row | binding | Molecule
1 | no binding | Luciferase (control) (from UniProt P08659 1-550) (enzyme)
2 | no binding | ABL-1(606–1,224), C-terminal fragment of C. elegans ABL-1 (domain or fragment, UniProt P03949 606-1224, labeled with 35S in vitro) HSSHHDRDRDRESLHSRNSNPEIPNRSFIRTDDSVSFFNPSTTSKVTSFRAQGPPFPPPPQQNTKPKLLKSVLNSNARHASEEFERNEQDDVVPLAEKNVRKAVTRLGGTMPKGQRIDAYLDSMRRVDSWKESTDADNEGAGSSSLSRTVSNDSLDTLPLPDSMNSSTYVKMHPASGENVFLRQIRSKLKKRSETPELDHIDSDTADETTKSEKSPFGSLNKSSIKYPIKNAPEFSENHSRVSPVPVPPSRNASVSVRPDSKAEDSSDETTKDVGMWGPKHAVTRKIEIVKNDSYPNVEGELKAKIRNLRHVPKEESNTSSQEDLPLDATDNTNDSIIVIPRDEKAKVRQLVTQKVSPLQHHRPFSLQCPNNSTSSAISHSEHADSSETSSLSGVYEERMKPELPRKRSNGDTKVVPVTWIINGEKEPNGMARTKSLRDITSKFEQLGTASTIESKIEEAVPYREHALEKKGTSKRFSMLEGSNELKHVVPPRKNRNQDESGSIDEEPVSKDMIVSLLKVIQKEFVNLFNLASSEITDEKLQQFVIMADNVQKLHSTCSVYAEQISPHSKFRFKELLSQLEIYNRQIKFSHNPRAKPVDDKLKMAFQDCFDQIMRLVDR
3 | binds | ABL-1(112–611), N-terminal fragment of C. elegans ABL-1 (domain or fragment, UniProt P03949 112-611, looked up, labeled with 35S in vitro, contains the SH3, SH2 and tyrosine kinase domains; Cloned in pDEST14 (Gateway) for expression in vitro; also called N-terminal half of ABL-1; source: in vitro translated (TNT T7 Quick Coupled Transcription/Translation system, Promega)) SSSSSAPLFVALYDFHGVGEEQLSLRKGDQVRILGYNKNNEWCEARLYSTRKNDASNQRRLGEIGWVPSNFIAPYNSLDKYTWYHGKISRSDSEAILGSGITGSFLVRESETSIGQYTISVRHDGRVFHYRINVDNTEKMFITQEVKFRTLGELVHHHSVHADGLICLLMYPASKKDKGRGLFSLSPNAPDEWELDRSEIIMHNKLGGGQYGDVYEGYWKRHDCTIAVKALKEDAMPLHEFLAEAAIMKDLHHKNLVRLLGVCTHEAPFYIITEFMCNGNLLEYLRRTDKSLLPPIILVQMASQIASGMSYLEARHFIHRDLAARNCLVSEHNIVKIADFGLARFMKEDTYTAHAGAKFPIKWTAPEGLAFNTFSSKSDVWAFGVLLWEIATYGMAPYPGVELSNVYGLLENGFRMDGPQGCPPSVYRLMLQCWNWSPSDRPRFRDIHFNLENLISSNSLNDEVQKQLKKNNDKKLESDKRRSNVRERSDSKSRHSSHHD
